These results are taken from patent US11718645B2 (University of Florida Research Foundation, Incorporated, priority 2014, dated 2023).

The series is described as follows: general procedure: solution-phase peptide synthesis; PyAOP (BG, BI, BJ); DEPBT (BH). Particulars: cyclisation step.

Where the note is “in 3 steps from precursor BG”, Apratoxin S4 showed a cyclisation yield of 60% in 3 steps.
Regarding Apratoxin S7, for the setting “in 3 steps from precursor BH”, the cyclisation yield was 25% in 3 steps.
As to Apratoxin S8, under “in 3 steps from precursor BI”, the cyclisation yield was determined as 70% in 3 steps.
In turn, Apratoxin S9 registered a cyclisation yield (in 3 steps from precursor BJ) of 45% in 3 steps.
